Assay [1] deals with OtDUB_(1-675), Flag-tagged, expressed in HeLa cells (Orientia tsutsugamushi (Ikeda isolate)) (UniProt B3CVM3). As to the kind of experiment: co-IP.
Assay [2] concerns the target full-length (FL) OtDUB, Flag-tagged, expressed in HeLa cells (Orientia tsutsugamushi (Ikeda isolate)) (UniProt B3CVM3). The assay is described as follows: co-IP.

By UniProt entry, the sequences of proteins in these tests, tags left out.
UniProt P60953: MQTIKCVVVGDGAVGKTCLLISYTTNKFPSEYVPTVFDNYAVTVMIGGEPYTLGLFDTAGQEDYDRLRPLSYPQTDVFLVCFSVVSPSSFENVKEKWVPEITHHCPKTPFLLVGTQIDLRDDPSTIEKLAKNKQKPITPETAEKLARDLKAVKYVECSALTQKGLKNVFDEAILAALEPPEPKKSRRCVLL
UniProt P61586: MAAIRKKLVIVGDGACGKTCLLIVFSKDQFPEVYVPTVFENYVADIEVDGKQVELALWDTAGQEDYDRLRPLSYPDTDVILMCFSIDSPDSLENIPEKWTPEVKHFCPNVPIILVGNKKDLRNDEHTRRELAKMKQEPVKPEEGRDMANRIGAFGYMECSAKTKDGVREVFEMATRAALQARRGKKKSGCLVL

These are yes or no findings as the source states them, for the method shown. Binding seen in cells or lysates may run through a third protein. Some entries that bind do so weakly or less than the wild type.

In the case of “Cdc42 (endogenous, HeLa) (from UniProt P60953 1-191)”, the binding entry in assay [1] was “no binding”; in assay [2], “binds”. “RhoA (endogenous, HeLa) (from UniProt P61586 1-193)”: the binding entry in assay [2] is recorded as “no binding”.

Values taken from paper doi:10.1101/2020.06.04.133876.
